From US20220332829A1 come the findings set out here.

Assay [1] concerns the target T1, human 4Ig-B7-H3-His protein (human) (UniProt Q5ZPR3).
T1 sequence: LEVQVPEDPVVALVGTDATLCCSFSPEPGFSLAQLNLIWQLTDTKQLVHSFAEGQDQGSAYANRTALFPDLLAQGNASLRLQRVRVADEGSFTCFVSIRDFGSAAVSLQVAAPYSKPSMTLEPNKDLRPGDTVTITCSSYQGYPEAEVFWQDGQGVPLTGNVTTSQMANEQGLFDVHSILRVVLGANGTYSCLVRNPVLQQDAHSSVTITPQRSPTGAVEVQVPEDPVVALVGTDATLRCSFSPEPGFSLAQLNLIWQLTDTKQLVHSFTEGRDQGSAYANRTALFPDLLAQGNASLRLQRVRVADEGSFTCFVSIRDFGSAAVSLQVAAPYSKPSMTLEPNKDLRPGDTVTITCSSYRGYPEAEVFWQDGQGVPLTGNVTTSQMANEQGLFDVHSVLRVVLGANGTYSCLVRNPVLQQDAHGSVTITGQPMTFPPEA
As to the kind of experiment: ELISA, plate coated with 4Ig-B7-H3-His; positive control.

Assay [2] concerns the target T1, human 4Ig-B7-H3-His protein (human). The experiment in a line: ELISA, plate coated with human 4Ig-B7-H3-His, detection with anti-human IgG HRP, OD450. For orientation: An ELISA detects its analyte on a solid surface through an enzyme-linked reagent.
Assay [3] has the same target. As to the kind of experiment: Biacore X100 SPR. On the technique in general: Surface plasmon resonance follows binding to a sensor surface in real time, without labels.
The target is the same in assay [4]. As to the kind of experiment: ELISA, plate coated with 4Ig-B7-H3-His.

No constants are given. Whether binding was seen depends on the method and setting. Some binding calls cover weakened binding; strength is not graded here. Sequences can lack the tags named with a protein.

B1: hBRCA84D (antibody, human IgG1, kappa, V domains shown)
VH: EVQLVESGGGLVQPGGSLRLSCAASGFTFSSFGMHWVRQAPGKGLEWVAYISSDSSAIYYADTVKGRFTISRDNAKNSLYLQMNSLRDEDTAVYYCGRGRENIYYGSRLDYWGQGTTVTVSS
VL: DIQLTQSPSFLSASVGDRVTITCKASQNVDTNVAWYQQKPGKAPKALIYSASYRYSGVPSRFSGSGSGTDFTLTISSLQPEDFATYYCQQYNNYPFTFGQGTKLEIKR
Take B1: the binding entry in assay [1] and in assay [2] was “binds” in each case.

B2: hu65-13 (antibody, human IgG1, V domains shown)
VH: EVQLVESGGGLVQPGGSLRLSCAASGFTFSDYGIHWVRQAPGKGLEWVSYISSGSNTIYYADTVKGRFTISRDNAKNSLYLQMNSLRAEDTAVYYCATMVTRWFYYAMDYWGQGTTVTVSS
VL: EIVLTQSPATLSLSPGERATLSCSASSSVSYMYWYQQKPGQAPRRLIYDTSKLASGVPARFSGSGSGTDYTLTISSLEPEDFAVYYCQQWSSNPPTFGQGTKLEIK
B2: the binding entry in assay [3] and in assay [4] was “binds” in each case.

B3: hu51-G34K-12 (antibody, human IgG1, V domains shown)
VH: EVQLVESGGGLVKPGGSLRLSCAASGFTFSSFGMSWVRQAPGKGLEWVATINSGDNYSYSPDSVKGRFTISRDNAKNSLYLQMNSLRAEDTAVYYCARPHIFYYGSPAWFAYWGQGTLVTVSS
VL: DVVMTQSPLSLPVTLGQPASISCRSRQSLVHSNKNTYLHWFQQRPGQSPRLLIYKVSNRFSGVPDRFSGSGSGTDFTLKISRVEAEDVGVYYCSQSTHVPLTFGGGTKVEIK
As to B3, the binding entry in assay [3], in assay [4] and in assay [2] was “binds” each time.
